Results reported in PubChem BioAssay AID493014 (National Center for Advancing Translational Sciences (NCATS), 2011).
The campaign covered roughly 340,000 compounds. About 170 (0.05%) were called active. The shares of active, inactive and inconclusive entries below differ from those in the screen. Calls come from the whole dose curve; as a rule, active = well fitted inhibition curve with a large enough effect in the signal ratio, with a control signal flat (not every such curve was filed as active); inconclusive = small, poorly fitted or top-dose-only effect, or effect the other way, or a change in a side signal; inactive = flat fitted curve, though single readings scatter; the % refers to the signal ratio. Where the call is inconclusive, the potency comes from a doubtful curve fit.

test: qHTS Assay to Find Inhibitors of Chronic Active B-Cell Receptor Signaling; conditions: ABC-DLBCL IkBa-CBG/CBR reporter, luminescence ratio (green luciferase fused to IkBa over red control in TMD8 lymphoma cells), 4 h; activity change, negative = inhibition: at 46.1 µM (top of the series);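 for activity change, negative = inhibition: plate controls were basal doxycycline-induced cells for no effect and cells given 10 µM MG132 for full effect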
Summary of the method: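 TMD8 ABC-DLBCL cells carrying doxycycline-inducible green luciferase fused to IkappaBalpha plus unfused red luciferase were exposed to compounds (up to 46 uM) for 4 hrs at 37C. Activity came from the overlap-corrected green/red luminescence ratio.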
Potency is the fitted concentration of half-maximal effect.

Structure (SMILES)	activity change, negative = inhibition	Potency
O=C(NCCc1csc(-c2ccccc2)n1)c1c(F)cccc1Cl	inconclusive: 2.13%	–
COc1cc(C2C(C#N)=C(N)Oc3c2ccc2ccccc32)ccc1OCC(=O)Nc1ccccc1C (stereo not drawn)	inactive: 11.2%	–
Cc1ccc(-c2nn3c(C)nnc3c3ccccc23)cc1S(=O)(=O)NCCN1CCOCC1	inconclusive: 10.2%	–
COC(=O)c1sc(C(=O)OC)c(C(=O)OC)c1C(=O)OC	inactive: -0.31%	–
CCSc1nnc(NC(=O)c2cccs2)s1	–	inconclusive: 22.4 µM [falling, partial curve]
CCOC(=O)C1CCN(Cc2cnc(Oc3ccc(N)cc3)s2)CC1	inconclusive: -0.542%	–
O=C(Nc1ccc(Br)cc1Cl)NC1CC1	inconclusive: 3.59%	–
Cc1ccccc1C(=O)Nc1cccc(-c2ccc3nncn3n2)c1	–	inconclusive: 11.2 µM [falling, partial curve, poor fit]
OCCN1CCN(C(c2cccs2)c2ccc3cccnc3c2O)CC1 (stereo not drawn)	inactive: -20.6%	–
COc1ccc(CCC(=O)NCCc2ccc(OC)c(OC)c2)cc1	inconclusive: -10.9%	–
COc1ccc(/C=N/NC(=O)c2cnccn2)cc1O	–	inconclusive: 16.4 µM [falling, single point]
C/C(=N\NC(=O)c1[nH]c2c([N+](=O)[O-])cc(C)cc2c1-c1ccccc1)c1cccnc1	inactive: -10.4%	–
Cc1cc2[nH]c3ccccc3c2cn1	–	inconclusive: 35.5 µM [falling, single point]
CC(C)c1nc(N2CCN(C(=O)c3ccco3)CC2)c2c3c(sc2n1)CCCC3	inconclusive: 4.23%	–
COc1cc(/C=N/N=C(N)N)ccc1OCc1ccccc1Cl	–	inconclusive: 35.5 µM [falling, single point]
Cc1cc(C)nc(N/N=C/c2ccccc2OCC(=O)O)n1	–	inconclusive: 35.5 µM [falling, single point]
Cc1csc(NC(=O)c2ccc(N3CCCC3=O)cc2)n1	inconclusive: 5.37%	–
CCOc1ccccc1N(C(=O)c1snc(C(N)=O)c1N)C(C(=O)NCCC(C)C)c1ccco1 (stereo not drawn)	inconclusive: -16.4%	–
S=C(Nc1ccccc1)N1CCCCC1	inactive: -0.525%	–
CC(C)(C)c1ccc(OCCCC(=O)Nc2cccc(S(=O)(=O)N3CCOCC3)c2)cc1	inconclusive: -21.5%	–
COc1ccc(NC(=O)[C@H](Cc2c[nH]c3ccccc23)NC(=O)[C@@H]2Cc3ccccc3CN2)cc1	inactive: 28.2%	–
COc1ccc(CN2C(=O)C(C)N(C(=O)c3c(F)cccc3F)c3ccccc32)cc1 (stereo not drawn)	inconclusive: -6.93%	–
Clc1ccc(-c2nnc(NCc3ccccc3)c3ccccc23)cc1	inconclusive: 18.6%	–
CCn1nccc1C(=O)Nc1nc2ccccc2n1CCN1CCCCC1	inconclusive: 0.0032%	–
CC(C)(C)OC(=O)[C@H](Cc1ccccc1)NC(=O)c1[nH]cnc1C(=O)Nc1cccc(Cl)c1	inconclusive: 14.6%	–
O=C(Nc1ccc(Cc2ccncc2)cc1)C1CCC(N2C(=O)C3CCCCC3C2=O)CC1 (stereo not drawn)	inconclusive: 1.38%	–

Structure (SMILES)	activity change, negative = inhibition	Potency
COc1ccc(-n2c(/C=C(\C)O)nc(=O)c3c(C)cc(C)nc32)cc1	inactive: -1.26%	–
O=C(CCC1CCCC1)N1CCN(C2CCCC2)CC1	inconclusive: -11.9%	–
O/N=C\c1ccc(-c2ccccc2)o1	inconclusive: -0.189%	–
O=C(Nc1ccc(F)cc1)C(c1ccccc1)N1CCN(S(=O)(=O)c2c(F)cccc2F)CC1 (stereo not drawn)	inconclusive: 2.51%	–
O=C(CCC(=O)N1CCSc2ccccc21)Nc1cccc(F)c1	inactive: 24.3%	–
Cc1nn(CC(=O)O)c(C)c1N	inactive: 3.87%	–
CC(C)COCC(CN(Cc1ccccc1)c1ccccc1)N1CCCC1 (stereo not drawn)	–	inconclusive: 35.5 µM [falling, single point]
Oc1ccccc1N1CCN(c2ncccn2)CC1	inconclusive: 5.32%	–
O=C(Oc1ccc(Cl)c2cccnc12)C12CC3CC(CC(C3)C1)C2	–	inconclusive: 5.8 µM [falling, partial curve]
Cc1ccccc1OC(C)C(=O)NC1CCCC1 (stereo not drawn)	inconclusive: 4.52%	–
N=c1n(CCN2CCOCC2)c2ccccc2n1CC(=O)c1ccc(Cl)c(Cl)c1	inconclusive: -9.29%	–
Cc1ccc(-c2nnn(CC(=O)N(Cc3cccs3)C(C(=O)NC3CCCC3)c3ccncc3)n2)cc1 (stereo not drawn)	–	inconclusive: 14.6 µM [rising, partial curve, poor fit]
O=C(Nc1cc(S(=O)(=O)N2CCOCC2)ccc1N1CCOCC1)c1ccccc1[N+](=O)[O-]	inconclusive: -0.875%	–
O=C(c1cc(-c2ccc(F)cc2)on1)N1CCCC1	–	inconclusive: 14.1 µM [falling, partial curve]
CSc1ccccc1NC(=O)Nc1cccc(Cl)c1Cl	–	inconclusive: 9.2 µM [falling, partial curve]
COc1ccc2c(CC(=O)NCc3ccc4c(c3)OCO4)coc2c1	–	inconclusive: 14.6 µM [falling, partial curve]
CS(=O)(=O)N(Cc1ccccc1Cl)c1ccc(C(=O)NCc2ccccn2)cc1	inactive: 0.499%	–
COC(=O)[C@@H](CC(C)C)NS(=O)(=O)N(Cc1ccccc1)[C@@H](CC(C)C)C(=O)OC	inconclusive: -10.7%	–
C/C(=N/NC(=O)c1cccs1)c1cccc(N)c1	–	inconclusive: 35.5 µM [rising, single point]
COc1cc(OC)c(-c2cc(C(=O)O)ccc2OC)c(OC)c1	inconclusive: 4.11%	–
Cc1ccc(SCC(=O)c2c(C)[nH]c3ccccc23)cc1	–	inconclusive: 0.366 µM [rising, partial curve]
COc1ccccc1NC(=O)CSc1ccc(-c2ccc(-n3cccn3)cc2)nn1	inactive: 8.08%	–
Cc1ccc(NC(=O)c2ccc(NCCCN3CCC(C)CC3)c([N+](=O)[O-])c2)cc1F	–	inconclusive: 17.8 µM [falling, partial curve, poor fit]
O=[N+]([O-])c1ccccc1/C=C/C=N/N1CCCCC1	–	inconclusive: 35.5 µM [falling, single point]
COc1ccccc1C(=O)Nc1ccc2c(c1)OCO2	inconclusive: -28.7%	–
Cc1ccc(C(=O)NCCN2C3=NC[C@@H](Cc4ccccc4)N3C[C@H]2Cc2ccc(O)cc2)cc1Br	inconclusive: -6.36%	–

Structure (SMILES)	activity change, negative = inhibition	Potency
CCSc1ccc2nnc(-c3ccc(F)cc3)n2n1	–	inconclusive: 13 µM [falling, partial curve, poor fit]
COc1ccc2c(c1OC)C(=O)N1N=C(c3ccc(O)cc3)CC21 (stereo not drawn)	–	inconclusive: 4.61 µM [falling, partial curve]
COc1cccc(C(=O)NC(=O)Nc2cc(C)on2)c1	inconclusive: -24.1%	–
COc1cc(OC)c(OC)cc1/C=C/C(=O)c1ccc(NS(=O)(=O)c2ccc(C)cc2)cc1	–	inconclusive: 23.1 µM [cytotoxic, single point]
CCCCOc1ccc(/C(O)=C2/C(=O)C(=O)N(CCN(C)C)C2c2ccc(O)c(OC)c2)cc1 (stereo not drawn)	inconclusive: -5.34%	–
CC(C)(C)C(=O)Nc1ccc(-c2cn3ccsc3n2)cc1	inactive: 8.47%	–
COc1ccccc1[C@]1(C)ON(c2ccccc2C(F)(F)F)C1=O	inconclusive: -1.21%	–
Cc1ccc(S(=O)(=O)Nc2ccc(O)c3ccccc23)c(C)c1	–	inconclusive: 22.4 µM [falling, single point]
O=C(Cc1ccc(Cl)cc1)Nc1ccc(Br)cn1	inactive: 5.27%	–
Cc1c(Nc2cc(N3CCOCC3)c3nonc3c2[N+](=O)[O-])c(=O)n(-c2ccccc2)n1C	inconclusive: -1.37%	–
O=C1CCCN1CCCN=c1c([N+](=O)[O-])nn(-c2ccc(Cl)cc2)n1O	inconclusive: 7.48%	–
COC(=O)[C@@]12CCCN1[C@H](c1ccc(-c3ccc(Cl)c(Cl)c3)cc1)[C@H]1C(=O)N(C)C(=O)[C@H]12	inconclusive: -18.2%	–
O=C(/C=C(\c1ccc(Cl)cc1)n1cncn1)c1ccc(Cl)cc1	inconclusive: 20.3%	–
Cc1cc(C)c(C)c(S(=O)(=O)NC(C(=O)O)C(C)C)c1C (stereo not drawn)	inconclusive: 7.68%	–
O=C(N/N=C/C(Cl)=C/c1ccccc1)c1ccc2c(c1)OCO2	–	inconclusive: 13 µM [falling, partial curve]
COC(=O)N1C(=O)[C@@](c2ccccc2)(C(C)C)N1C(=O)OC	–	inconclusive: 2.82 µM [falling, full curve, poor fit]
COc1ccccc1-n1c(N)c(C(=O)NCC2CCCO2)c2nc3ccccc3nc21 (stereo not drawn)	–	inconclusive: 29.1 µM [falling, single point]
COc1ccc2c(c1)[nH]c1c(=O)n(CCN3CCOCC3)cnc12	inactive: -0.311%	–
S=C(Nc1ccccc1Cl)N(CCCN1CCOCC1)Cc1ccccn1	inactive: 4.34%	–
COCc1cc(CN2CCN(C)CC2)c(O)c2ncccc12	–	inconclusive: 20.6 µM [falling, single point]
O=C(NCCc1ccco1)c1cc(COc2cccc(C(F)(F)F)c2)on1	inconclusive: -13.9%	–
CCOc1ccc(N2CC(=O)SC2=S)cc1	–	inconclusive: 17.8 µM [falling, single point]
C/C(=N\NC(=O)COc1ccccc1-c1ccccc1)c1cccnc1	–	inconclusive: 25.1 µM [falling, single point]
CC(=O)c1ccc(NC(=O)c2noc3c2CCC3)cc1	inconclusive: -17%	–
COC(=O)c1ccccc1NC(=O)CSc1nnc(Cc2ccc(Cl)cc2)o1	–	inconclusive: 29.1 µM [rising, single point]
Cc1cccc(-n2nnc(C(=O)NCc3ccccc3)c2N)c1	–	inconclusive: 29.1 µM [falling, single point]

Single records, from the list above:
COc1cc(OC)c(-c2cc(C(=O)O)ccc2OC)c(OC)c1 is entered as activity change, negative = inhibition: inconclusive: 4.11%
C/C(=N/NC(=O)c1cccs1)c1cccc(N)c1 is entered as Potency: inconclusive: 35.5 µM [rising, single point]
COC(=O)N1C(=O)[C@@](c2ccccc2)(C(C)C)N1C(=O)OC is entered as Potency: inconclusive: 2.82 µM [falling, full curve, poor fit]
Oc1ccccc1N1CCN(c2ncccn2)CC1 is entered as activity change, negative = inhibition: inconclusive: 5.32%
